Measured values reported in paper PMC8197790.
These are yes or no findings as the source states them, for the method shown. Binding seen in cells or lysates may run through a third protein. Some binding calls cover weakened binding; strength is not graded here.

By UniProt entry, the sequences of proteins in these tests, tags left out.
UniProt Q9R0A1: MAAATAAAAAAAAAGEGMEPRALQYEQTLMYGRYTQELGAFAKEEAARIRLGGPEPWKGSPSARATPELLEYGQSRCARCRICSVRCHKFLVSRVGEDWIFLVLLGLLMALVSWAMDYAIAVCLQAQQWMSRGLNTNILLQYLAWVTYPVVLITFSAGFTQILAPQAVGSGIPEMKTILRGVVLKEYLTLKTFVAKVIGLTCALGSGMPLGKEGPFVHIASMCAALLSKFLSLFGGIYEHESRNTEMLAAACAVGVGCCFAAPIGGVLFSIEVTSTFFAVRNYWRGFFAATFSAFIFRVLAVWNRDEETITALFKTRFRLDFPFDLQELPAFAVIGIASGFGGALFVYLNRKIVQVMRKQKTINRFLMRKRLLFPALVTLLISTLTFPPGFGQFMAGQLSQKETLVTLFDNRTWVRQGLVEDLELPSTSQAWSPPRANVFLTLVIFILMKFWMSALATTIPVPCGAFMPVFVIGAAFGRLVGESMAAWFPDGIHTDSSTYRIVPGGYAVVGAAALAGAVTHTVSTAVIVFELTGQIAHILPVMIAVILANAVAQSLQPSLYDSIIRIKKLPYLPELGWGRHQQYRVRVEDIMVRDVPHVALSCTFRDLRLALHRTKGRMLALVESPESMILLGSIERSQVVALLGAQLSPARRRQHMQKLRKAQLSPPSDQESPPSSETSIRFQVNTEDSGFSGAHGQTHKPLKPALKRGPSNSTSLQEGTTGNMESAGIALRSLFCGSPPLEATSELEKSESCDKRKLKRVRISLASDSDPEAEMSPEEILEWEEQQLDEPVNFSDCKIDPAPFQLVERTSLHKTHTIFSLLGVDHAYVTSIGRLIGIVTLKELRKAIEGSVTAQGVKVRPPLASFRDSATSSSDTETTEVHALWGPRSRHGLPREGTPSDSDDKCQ
UniProt O35465: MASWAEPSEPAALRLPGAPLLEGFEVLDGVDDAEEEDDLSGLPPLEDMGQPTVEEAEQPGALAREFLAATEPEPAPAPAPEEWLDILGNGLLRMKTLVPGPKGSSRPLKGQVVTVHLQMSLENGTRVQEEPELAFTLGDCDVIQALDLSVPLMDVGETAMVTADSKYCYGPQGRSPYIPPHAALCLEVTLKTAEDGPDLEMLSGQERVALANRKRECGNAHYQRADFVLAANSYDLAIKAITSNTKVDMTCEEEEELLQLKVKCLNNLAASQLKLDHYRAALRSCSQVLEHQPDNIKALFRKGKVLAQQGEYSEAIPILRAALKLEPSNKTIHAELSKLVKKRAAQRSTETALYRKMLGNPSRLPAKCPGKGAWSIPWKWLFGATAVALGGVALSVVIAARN
UniProt Q8BK64: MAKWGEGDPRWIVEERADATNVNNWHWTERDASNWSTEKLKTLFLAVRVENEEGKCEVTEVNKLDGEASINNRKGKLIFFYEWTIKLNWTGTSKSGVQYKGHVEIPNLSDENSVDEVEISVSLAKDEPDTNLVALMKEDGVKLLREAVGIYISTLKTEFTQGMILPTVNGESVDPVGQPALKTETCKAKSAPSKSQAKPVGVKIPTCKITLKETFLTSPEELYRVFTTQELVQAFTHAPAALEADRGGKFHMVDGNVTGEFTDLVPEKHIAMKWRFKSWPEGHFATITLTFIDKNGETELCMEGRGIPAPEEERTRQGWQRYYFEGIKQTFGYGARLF

Each substance was assayed against ClC-2 chloride channel (endogenous, mouse testes) (mouse (endogenous in mouse testes)) (UniProt Q9R0A1) (assay: co-IP; mouse testis lysates (T-PER reagent) incubated 16 h at 4 °C with protein G sepharose beads pre-coated with rabbit anti-ClC-2 antibody or rabbit IgG; washed in 100 mM NaCl buffer pH 7.5 with and without 0.1% Triton X-100; immunoblot for the chaperones/co-chaperones).

binding | Substance
binds | FK506-binding protein 8 (endogenous, mouse testes) (from UniProt O35465 1-402)
binds | Hsp70/Hsp90 organizing protein (endogenous, mouse testes) (from UniProt Q60864 1-543)
binds | activator of Hsp90 ATPase homolog 1 (endogenous, mouse testes) (from UniProt Q8BK64 1-338)
